No constants are given. Whether binding was seen depends on the method and setting. In cells and extracts the contact can be indirect. Some binding calls cover weakened binding; strength is not graded here.
Biological target: LIM domain and actin binding 1 (LIMA1) (human (endogenous in Huh7)) (UniProt Q9UHB6)
Assay: co-IP; endogenous proteins of Huh7 cells lysed with NP-40 and 1% PMSF; Pierce Magnetic IP/Co-IP Kit; western blotting

Chains of the proteins cited; added tags and fusions are not shown.
UniProt Q9UHB6: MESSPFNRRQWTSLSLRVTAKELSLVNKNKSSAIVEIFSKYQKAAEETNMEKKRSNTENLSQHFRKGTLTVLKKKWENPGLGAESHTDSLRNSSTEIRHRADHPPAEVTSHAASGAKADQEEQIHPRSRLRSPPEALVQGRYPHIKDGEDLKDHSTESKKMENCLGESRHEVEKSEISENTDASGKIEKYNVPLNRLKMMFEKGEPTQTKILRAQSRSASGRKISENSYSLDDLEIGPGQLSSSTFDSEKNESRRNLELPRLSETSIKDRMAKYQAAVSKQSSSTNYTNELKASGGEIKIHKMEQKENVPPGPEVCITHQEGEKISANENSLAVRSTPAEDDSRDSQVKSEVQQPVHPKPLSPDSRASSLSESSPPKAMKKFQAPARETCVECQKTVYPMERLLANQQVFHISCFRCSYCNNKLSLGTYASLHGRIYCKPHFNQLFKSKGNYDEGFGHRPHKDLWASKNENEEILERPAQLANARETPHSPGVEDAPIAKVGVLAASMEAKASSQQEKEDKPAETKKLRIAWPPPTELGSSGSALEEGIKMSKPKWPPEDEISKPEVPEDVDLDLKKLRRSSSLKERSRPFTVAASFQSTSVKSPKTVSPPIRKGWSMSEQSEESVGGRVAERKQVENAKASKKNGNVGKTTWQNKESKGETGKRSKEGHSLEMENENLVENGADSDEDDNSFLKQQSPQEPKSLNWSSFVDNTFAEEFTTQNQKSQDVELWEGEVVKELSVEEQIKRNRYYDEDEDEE
UniProt P35226: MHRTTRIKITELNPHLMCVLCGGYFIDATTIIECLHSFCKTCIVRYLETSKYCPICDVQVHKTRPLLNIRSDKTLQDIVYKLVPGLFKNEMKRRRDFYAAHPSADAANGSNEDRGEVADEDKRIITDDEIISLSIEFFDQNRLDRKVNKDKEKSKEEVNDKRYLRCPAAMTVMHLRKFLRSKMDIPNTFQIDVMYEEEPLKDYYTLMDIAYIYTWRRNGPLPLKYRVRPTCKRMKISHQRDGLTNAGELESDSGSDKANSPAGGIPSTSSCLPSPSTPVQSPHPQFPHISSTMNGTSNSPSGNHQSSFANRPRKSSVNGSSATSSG
UniProt P16591: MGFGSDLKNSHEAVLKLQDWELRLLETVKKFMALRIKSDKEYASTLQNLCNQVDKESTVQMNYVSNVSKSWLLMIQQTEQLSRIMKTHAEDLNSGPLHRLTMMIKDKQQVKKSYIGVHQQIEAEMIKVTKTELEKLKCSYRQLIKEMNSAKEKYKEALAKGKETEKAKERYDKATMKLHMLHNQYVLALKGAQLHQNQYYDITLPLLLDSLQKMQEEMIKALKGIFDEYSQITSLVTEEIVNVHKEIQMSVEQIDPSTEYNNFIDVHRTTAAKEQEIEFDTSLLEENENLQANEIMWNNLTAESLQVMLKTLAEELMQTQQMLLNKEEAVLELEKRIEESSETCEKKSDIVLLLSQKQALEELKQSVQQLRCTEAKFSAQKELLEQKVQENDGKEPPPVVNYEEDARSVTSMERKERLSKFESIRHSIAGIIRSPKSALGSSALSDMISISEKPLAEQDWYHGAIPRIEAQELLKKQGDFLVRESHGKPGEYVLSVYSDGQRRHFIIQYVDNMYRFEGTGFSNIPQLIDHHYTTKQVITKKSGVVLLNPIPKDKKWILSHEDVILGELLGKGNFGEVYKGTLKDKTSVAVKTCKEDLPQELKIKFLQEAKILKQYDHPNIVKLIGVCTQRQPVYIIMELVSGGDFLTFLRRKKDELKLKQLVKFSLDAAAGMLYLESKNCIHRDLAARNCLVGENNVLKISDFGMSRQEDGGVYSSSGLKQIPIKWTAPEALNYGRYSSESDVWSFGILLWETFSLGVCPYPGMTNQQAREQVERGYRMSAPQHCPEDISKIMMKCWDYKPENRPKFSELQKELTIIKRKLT

Row | Substance | binding
1 | BMI1, polycomb ring finger protein (from UniProt P35226 1-326) | binds
2 | FER (from UniProt P16591 1-822) | no binding

— publication PMC9740131
